According to publication PMC11277477:

B1: EhVps23 (protein, UniProt C4LUR9 1-283)
chain: MNLSKIDLTLSTVKPYYLYYLRVRVEITSVMQYYKFSATVRTYADGIILASLVGTIPIVYRGSQFCLPLCIMYPYDYPLSPPLFFTDPTPEMEVVPGHPYAMPNIVICHPILDRWSENVNTLSVLQVFVKDFSYMPPLRMKTSVIPSYSCYFPEWSSYYSYPQNYNQPIPLNHSHQLPSISSIYATESNPSIPPPQSQQLPSFQNTMDTLFTIDGFAPFKTKENECSQSPSHKKLFTKSSGPMITDLKAFVLGKQQHMKRSLPTISQTKKYKTRTTLTPLNTK
B2: EhVps32 (protein, UniProt C4M1A5 1-204)
chain: MSWFRRNTTKQTIAKMNEQIKTMEKKEEYDRKRMEMELEKAKECMKKGDKTGAAQHLRKKKMHEKNMNETINLRMNLESQILEMESAKVKVDTARSFAAANKEMTKINKEMDAGKIEKTMDELRENNEKSHEIGDLLGEDLQDIDQGELEDDLAELEDQVLDEQEDELAELEHDLPAPKAKVTKQKVTKKTLTQEEEDELAELM
B3: Actin (EHI_008780) (protein, UniProt C4M0P2 1-763)
chain: MNFFKKQFNGNEFMVRCQCALRRISAQQKKYQTHSKTFKKQIIELLQNNERDKAFDKCTLLVQEDYKNEALTELIDVIDELMKNSEIIGTQRICPLELKSACGAILYASPYFPDHTEMMELRNMLIDKFGKTFPEECVNSKVISPKLLSRLSSKPVDSDVVNYYLDSIAKENNLITEENKLPEENPNEMLPADASKCELSRLLDGKQNNKYTFGVLTKNVIGKIKKGGDKVEAYISGPNNTKIIGEVTDLHDGTYDIVFVPPYAGNYLIAVYVNDKQIEQIGKLHILEANSLDLNKCIIEGNGIKGGYVNEKQNFTIIAKDSSGQTINHGGEPFAAYIAGPNDVKIIGDITDLKNGQYDVSYVPPIKGNYAIAVYHNTTLVQSVFNFSIEERSTQQQFPTIQQHIQPQITKSFIPVQGKPGEHFIIDIGSCSIKSGFESVGTPSIVTPTVVGKNLHQTSGFVEQNLYVGDEAIDKRGILSLEYPMQKEPIDYNSLKSVMKHSVEVAQGHPTVVITNGLTPLQMKINTSEILFNEGVQSIRFVDEAQAISRLYNKQNCVIVNIGGMMSWVIPVINGIVYNNISQKLPIAGVKCTEILMALLSKEGITLGSTSSEKEIARQIKEATGYIQVSHNSLIQPINYSLPDGTSLTIGNSRVQCFEPLFNPQLCAMNCSGISQMIATVLRNINGCTNEIILVGGGSLIKGLKERIENDIQQLLNFKINVIAEDNRKFASWLGANLLDKENIGKIITLDTWKQEGALCLDD

What follows are binders tested against GST-EhADH recombinant protein (E. histolytica) (assay: pull-down; GST-tagged bait bound to glutathione-Sepharose (200 μg) incubated with total trophozoite lysate (2 mg), 4 h, 4 °C; bound proteins detected by western blot with specific antibodies; only the target purified).

Question: For B1, which binding is on record?
Answer: Its binding is “binds”.

Question: B2 was tested. Which binding did it give?
Answer: Its binding is “binds”.

Question: With B3 as the binder, how does the binding read?
Answer: Its binding is “binds”.

No constants are given. Whether binding was seen depends on the method and setting. Binding seen in cells or lysates may run through a third protein. Binding calls can cover weak binding; strength is not graded here.
